Results as given in PubChem BioAssay (NCATS).
“And” between values parts separate entries of the source, which are not always exact repeats. Equal values may be shown once. Inconclusive results, whose numbers are uncertain, are shown with a selection of clear calls. Where the call is inconclusive, the potency comes from a doubtful curve fit. The source made the active and inactive calls. Unless noted, calls follow the shape of the full dose curve.

Experiment: Cell Viability - LYMP1-002 - Assay at 40 hr (AID 994; active = well fitted cell-killing curve with a large enough effect; inconclusive = small, poorly fitted or top-dose-only effect; also: nearly all actives have a fitted effect of over 60% in size;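 as to viability change, negative = cytotoxic: 0% = DMSO only and full inhibition = 92 µM tetraoctylammonium bromide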)
Settings: LYMP1-002 lymphoblastoid cell viability; series mostly up to 92.2 µM; viability change, negative = cytotoxic: at the top concentration
How it was run: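 Cells are plated at 2500 per well and rested 5 hr at 37 C. Compounds are added and incubated 40 hr at 37 C. CellTiter-Glo reagent is added for 30 min at room temperature before luminescence is read.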
Potency is read from the fitted curve at half-maximal effect.

Which Potency does the source give for `O=c1cc(-c2ccc(O)cc2)oc2cc(O)cc(O)c12` here?
Its Potency is inconclusive: 39.8 µM [cytotoxic, partial curve].

For `O=C1CN(/N=C/c2ccc([N+](=O)[O-])o2)C(=O)N1`, which Potency is on record?
The Potency was inconclusive: 50.1 µM [cytotoxic, partial curve].

For `Oc1ccc(/C=C/c2cc(O)cc(O)c2)cc1`, which Potency is on record?
The Potency was inconclusive: 39.8 µM [cytotoxic, partial curve].

Which Potency does the source give for `NC(=O)N/N=C/c1ccc([N+](=O)[O-])o1` here?
The Potency was inconclusive: 50.1 µM [cytotoxic, partial curve].

With `CC(C)(C)c1ccc(O)c(O)c1` as the compound, how does the Potency read?
The Potency was inconclusive: 50.1 µM [cytotoxic, partial curve].

With `C#C[C@]1(O)CC[C@H]2[C@@H]3CCc4cc(O)ccc4[C@H]3CC[C@@]21C` as the compound, how does the Potency read?
Its Potency is inconclusive: 50.1 µM [cytotoxic, partial curve].

Which “viability change, negative = cytotoxic” value does the source give for `O=c1cc(-c2ccccc2)oc2ccccc12` here?
Its value is inactive: -16.7%.

Which Potency does the source give for `Oc1ccc(O)cc1` here?
The Potency was inconclusive: 31.6 µM [cytotoxic, partial curve].

For `Nc1ccccc1N`, which Potency is on record?
Its Potency is inconclusive: 39.8 µM [cytotoxic, partial curve].

With `CN(C)c1ccc(C(=C2C=CC(=[N+](C)C)C=C2)c2ccccc2)cc1` as the compound, how does the Potency read?
The Potency was active: 1 µM.

Experiment: qHTS Assay for Lipid Storage Modulators (AID 1519); as to activity change, negative = inhibition: % is scaled to controls: 0 for no effect and ±100 for the full control effect
Settings: Drosophila S3 cells, BODIPY lipid droplet/cell ratio, laser cytometry, cells loaded with oleic acid; activity change, negative = inhibition: at 57.5 µM (top of the series) unless noted
How it was run: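 Cells seeded at 5,000 per well were treated with compounds over a concentration series and loaded with oleic acid (400 uM, as added). Lipid droplet fluorescence (488 nm excitation, 500-530 nm channel) was read by laser-scanning cytometry and normalized to 20 uM Triacsin C.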

Which “activity change, negative = inhibition” value does the source give for `CCN1/C(=C/C(C)=O)Sc2ccc(OC)cc21` here?
Its value is inactive: 0.847%.

Which Potency does the source give for `O=c1onc2cnc3ccccc3n12` here?
Its Potency is inconclusive: 15.8 µM [rising, single point].

With `O=Nc1c(-c2c(O)[nH]c3cc(Br)ccc23)[nH]c2ccccc12` as the compound, how does the activity change, negative = inhibition read?
Its activity change, negative = inhibition is inconclusive: -84.1%.

For `c1ccc2[nH]c(-c3cscn3)nc2c1`, which “activity change, negative = inhibition” value is on record?
Its value is inactive: 0.183% [at 25.7 µM].

Which activity change, negative = inhibition does the source give for `CC(=O)Oc1ccccc1C(=O)O` here?
Its activity change, negative = inhibition is inconclusive: 0.417%.

For `O=NN(CCCl)C(=O)NCCCl`, which activity change, negative = inhibition is on record?
Its activity change, negative = inhibition is inconclusive: 0.512%.

For `O=c1cc(-c2ccc(O)cc2)oc2cc(O)cc(O)c12`, which activity change, negative = inhibition is on record?
The activity change, negative = inhibition was inconclusive: -9.03% [at 25.7 µM].

With `Oc1ccc(/C=C/c2cc(O)cc(O)c2)cc1` as the compound, how does the activity change, negative = inhibition read?
Its activity change, negative = inhibition is inconclusive: 0.136%.

Which Potency does the source give for `CC(C)(C)NC[C@H](O)COc1cccc2c1CCCC2=O` here?
The Potency was “inactive”.

For `CC(=O)SCC[N+](C)(C)C`, which activity change, negative = inhibition is on record?
The activity change, negative = inhibition was inconclusive: -0.645%.

Which activity change, negative = inhibition does the source give for `NS(=O)(=O)c1cc(C(=O)O)c(NCc2ccco2)cc1Cl` here?
Its activity change, negative = inhibition is inconclusive: 11.6%.

For `CCCCCCOc1ccccc1C(N)=O`, which “activity change, negative = inhibition” value is on record?
Its value is inactive: 12.4%.

With `O=C(O)c1cc(O)c(O)c(O)c1` as the compound, how does the activity change, negative = inhibition read?
Its activity change, negative = inhibition is inconclusive: 14.5%.

Which Potency does the source give for `Cc1ccnc(NS(=O)(=O)c2ccc(N)cc2)n1` here?
Its Potency is “inactive”.

Which activity change, negative = inhibition does the source give for `CCN(CC)CCOc1ccc(/C(=C(\Cl)c2ccccc2)c2ccccc2)cc1` here?
The activity change, negative = inhibition was inconclusive: -13.6% [at 25.7 µM].

Which activity change, negative = inhibition does the source give for `CC(C(=O)O)c1cccc(C(=O)c2ccccc2)c1` (configuration not stated) here?
Its activity change, negative = inhibition is inconclusive: 10.4% and inconclusive: 2.45%.

With `COc1ccc(-c2coc3cc(O)ccc3c2=O)cc1` as the compound, how does the activity change, negative = inhibition read?
Its activity change, negative = inhibition is inconclusive: 8.9%.

For `O=C(O)c1ccccc1Nc1ccccc1`, which Potency is on record?
The Potency was “inactive”.

Same assay, conditions: Drosophila S3 cells, BODIPY lipid droplet/cell ratio, laser cytometry; at 57.5 µM (top of the series); cells loaded with oleic acid

For `CC(=O)Oc1ccccc1C(=O)O`, which activity change, negative = inhibition is on record?
Its activity change, negative = inhibition is inactive: 4.32%.

With `O=NN(CCCl)C(=O)NCCCl` as the compound, how does the activity change, negative = inhibition read?
The activity change, negative = inhibition was inactive: -2.32%.

With `NNc1nncc2ccccc12` as the compound, how does the activity change, negative = inhibition read?
Its activity change, negative = inhibition is inconclusive: 9.97% and inconclusive: 2.07%.

Which activity change, negative = inhibition does the source give for `COc1ccc(-c2coc3cc(O)ccc3c2=O)cc1` here?
The activity change, negative = inhibition was inactive: -1.11%.
